Measurements from patent publication US20240076375A1.
Where a chain is given by its changes, count along the chain named. In names and notes the source's numbering stands. No constants are given. Whether binding was seen depends on the method and setting. Some binding calls cover weakened binding; strength is not graded here. For some assays here: Where a sequence is shown, tags or fusion partners need not be part of it. Values belong to the binder of their own block, whether it stands above or below them.

Assays:
Tim-3-his (human) = target: T1, Tim-3-his (human) (UniProt Q8TDQ0); experiment: SPR (BIAcore T-200), antibody captured by anti-human Fab, Tim-3-his flowed
T1 sequence: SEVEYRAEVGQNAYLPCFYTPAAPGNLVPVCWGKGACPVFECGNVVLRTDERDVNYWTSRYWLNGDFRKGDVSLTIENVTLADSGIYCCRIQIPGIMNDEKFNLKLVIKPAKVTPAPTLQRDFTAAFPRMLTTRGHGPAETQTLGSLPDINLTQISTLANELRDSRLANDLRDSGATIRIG

[1] = target: T2, Tim-3 (form used in the assay not stated) (human) (UniProt Q8TDQ0); experiment: binding assays, not specified
T2 sequence: T1 sequence

[2] = target: T2, Tim-3 (form used in the assay not stated) (human); experiment: SPR, Fab

binding (Tim-3-his (human)): binds
B1: Ab2 in human IgG4 format with S228P mutation (antibody, V domains shown)
VH: EVQLLESGGGLVQPGGSLRLSCAAASGFTFSSYDMSWVRQAPGKGLDWVSTISGGGTYTYYQDSVKGRFTISRDNSKNTLYLQMNSLRAEDTAVYYCASMDYWGQGTTVTVSS
VL: DIQMTQSPSSLSASVGDRVTITCRASQSIRRYLNWYHQKPGKAPKLLIYGASTLQSGVPSRFSGSGSGTDFTLTISSLQPEDFAVYYCQQSHSAPLTFGGGTKVEIKR

binding [1]: binds
B2: hu425-1-2c (V62I) (antibody, human IgG1, kappa, V domains shown)
VH: EVQLVESGGGLVQPGGSLRLSCAASGFTFSRYAMSWVRQAPGKGLEWVAAISSGGSLYFPDSVKGRFTISRDNAKNSCYLQMNSLRAEDTAVYYCARGREADGGYFDYWGQGTLVTVSS
VL: DIVLTQSPATLSVSPGERATLSCRASESVEYYGTSLMQWYQQKPGQAPRLLIYAASNVESGIPARFSGSGSGTDFTLTISSLQSEDFAVYYCQQSMKVPLTFGGGTKVEIKR

binding [2]: binds
B3: hu425-2-3b Fab (Fab, V domains shown)
VH: B2 VH with F59Y, S77T, C78L
VL: EIVLTQSPATLSVSPGERATLSCRASESVEYYGTSLMQWYQQKPGQAPRLLIYAASNVESGIPARFSGSGSGTEFTLTISSLQSEDFAVYYCQQSLKVPLTFGGGTKVEIK

binding [1]: binds
B4: hu425-2C-1 (C78L in Vh) (antibody, human IgG1, kappa, V domains shown)
VH: B2 VH with C78L
VL: B2 VL with I62V

binding (Tim-3-his (human)): binds
B5: Hu425-2-3b in human IgG4 format with S228P mutation (antibody, V domains shown)
VH: B2 VH with F59Y, S77T, C78L
VL: B3 VL

binding [1]: binds
B6: hu425-1-2d (D74E) (antibody, human IgG1, kappa, V domains shown)
VH: B2 VH
VL: B2 VL with I62V, D74E

binding [1]: binds
B7: hu425-2A-1 (F59Y in Vh) (antibody, human IgG1, kappa, V domains shown)
VH: B2 VH with F59Y
VL: B2 VL with I62V

binding [2]: binds
B8: hu425-2-2 Fab (Fab, V domains shown)
VH: B2 VH with F59Y, S77T, C78L
VL: B3 VL with L4M
